Drawing on paper PMC7819943, “Rice protein-binding microarrays: a tool to detect cis-acting elements near promoter regions in rice”, this text covers binding signal for 42 sequences.

Amino acid sequences for entries named in this document (tags omitted).
UniProt Q0JBA9, entry or part of it: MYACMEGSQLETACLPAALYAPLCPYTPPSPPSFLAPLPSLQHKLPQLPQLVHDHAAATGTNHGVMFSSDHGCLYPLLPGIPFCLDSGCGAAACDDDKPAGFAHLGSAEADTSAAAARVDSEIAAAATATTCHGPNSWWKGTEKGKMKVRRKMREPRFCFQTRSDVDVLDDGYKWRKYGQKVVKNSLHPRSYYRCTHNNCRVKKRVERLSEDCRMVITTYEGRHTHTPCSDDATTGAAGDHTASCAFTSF

Some of the results follow.

The test addresses OsWRKY34 (Oryza sativa, UniProt Q0JBA9 1-250). Kind of test: protein-binding microarray (RPBM); PBS, 2% BSA, 51.3 ng/ul salmon testes DNA, 50 uM zinc acetate, 200 nM TF, 25 C, 1 h; high values mean tight binding. As to conditions: protein: recombinant; tags: N-terminal polyhistidine and DsRed monomer fusion (pET32a); label: CyDye5-dUTP incorporated in the synthesized complementary strand; 3' TTTTT single-stranded linker to array surface; dsDNA, one strand shown. The procedure, abridged:
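Using Ni–NTA, transcription factors fused N-terminally to polyhistidine and DsRed were purified after expression in E. coli BL21-CodonPlus. These were incubated at 200 nM with a blocked, double-stranded custom Agilent array for 1 h at 25 °C in a buffer containing 50 µM zinc acetate, and the array was washed. The binding signal is per-feature fluorescence intensity (arbitrary units) on an Axon 4000B scanner.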
In the case of “GAGTTCATCTCCACCCTCGTCTTCGTCTTCGCCGGCGTCGCGGAGTCACCTAGTGCAG”, the binding signal is 8192 fluorescence intensity (a.u.). For “TAGGTGTATCAGTTGTGTGCCATTCTCGTCTCTTCTCCGCCGGAGTCACCTAGTGCAG”, the binding signal is 13100 fluorescence intensity (a.u.). Under “CCCTCCTCTCGCCTGGCCGCCGCGCACCGTCTCCCTCCTCCGGAGTCACCTAGTGCAG” stands 8350 fluorescence intensity (a.u.); under “GTAATGGTTTTATTTTTTCATACATCTTTCTCTTTTCTTCCGGAGTCACCTAGTGCAG”, 10700 fluorescence intensity (a.u.); under “TTCTTCCCAGATCGTGCTTCTCCCACTCGGATCAGCCGCCCGGAGTCACCTAGTGCAG”, 8110 fluorescence intensity (a.u.).

“TGTATAGCTACATATTCACGCCACACCGCATCGTCATCTACGGAGTCACCTAGTGCAG”: the binding signal is 8910 fluorescence intensity (a.u.). Under “GGTGCTTGGATTGGGTGAAGGGGCATCATCTGCTCACTCCCGGAGTCACCTAGTGCAG” stands 8370 fluorescence intensity (a.u.). With “CTTCCTCGTCAGTTTGCCCTTTAGCCCACCCGCACCGCCGCGGAGTCACCTAGTGCAG” the figure was 8290 fluorescence intensity (a.u.); with “ACTCACATATCTCGTTTTCCACGCGCACTACTTTCCTAACCGGAGTCACCTAGTGCAG”, 9090 fluorescence intensity (a.u.). With “GCCCTTGAATTTCTTTCACTTCCAATTTTAAGCTGATGTTCGGAGTCACCTAGTGCAG” the figure was 8880 fluorescence intensity (a.u.); with “ACTCTCTCTCCTTCAACACTGAGCTGAGCTCCACACTCCGCGGAGTCACCTAGTGCAG”, 9240 fluorescence intensity (a.u.). “GGTAGATTATATTAGGTTTTTCTTCGTGTTGTATTCACGACGGAGTCACCTAGTGCAG”: the binding signal is 8720 fluorescence intensity (a.u.). “GGCAGATGTGGACGGAGGGAGGGAGGGAGGGAGAGGGGCACGGAGTCACCTAGTGCAG”: the binding signal was 17100 fluorescence intensity (a.u.). Regarding “GGTTATCCTACTTCTATAAATTTCACACAATCGCTAGAATCGGAGTCACCTAGTGCAG”, the binding signal was 8300 fluorescence intensity (a.u.). Under “TATGTGTGTCTCGCTGGCTTGGTGATTAGTTAGTCCTTTTCGGAGTCACCTAGTGCAG” stands 9950 fluorescence intensity (a.u.); under “AGGGAGGAGGGTGGGTGGTGCCAACACGTCAGGCTGAATTCGGAGTCACCTAGTGCAG”, 12200 fluorescence intensity (a.u.); under “ATGTTTTTTTTTGGGTCGCTTTCTTTGTGTGTGTATATATCGGAGTCACCTAGTGCAG”, 16400 fluorescence intensity (a.u.). With “TGGGCCTTGGTAAGGGACAGTGGCATACTCGTGTACATGGCGGAGTCACCTAGTGCAG” the figure was 8300 fluorescence intensity (a.u.). With “CTACTGCTTTCTTTCTTTCTCTATTGCAGTCTACCTCCTACGGAGTCACCTAGTGCAG” the figure was 11400 fluorescence intensity (a.u.); with “GCGCGCGGTTCCACCTCCCGGTCATGTAATTCATCCGTATCGGAGTCACCTAGTGCAG”, 8370 fluorescence intensity (a.u.); with “ACATGACCCCATGATTCGATTGGATTGTTGTTACATAAAACGGAGTCACCTAGTGCAG”, 8930 fluorescence intensity (a.u.).

As for “GTGAATGTAAAAAATACTTGCTTTTGTCCTTTATGATTGGCGGAGTCACCTAGTGCAG”, the binding signal is 8970 fluorescence intensity (a.u.). With “GAATGTGCGTTTATGTTTATTTGCATTGCTTATTAGCAACCGGAGTCACCTAGTGCAG” the figure was 9510 fluorescence intensity (a.u.); with “GTGTGTCTGGTGACTCTTATTTTGTTAGTCTGATTCGTTTCGGAGTCACCTAGTGCAG”, 10200 fluorescence intensity (a.u.); with “TCCATTTTCACCACTGTTTGTTATTGATACCGACTAAAACCGGAGTCACCTAGTGCAG”, 10300 fluorescence intensity (a.u.). With “TCCGATGGGAGCCTCTATCTCTATCTCTCTCTAAACCCAACGGAGTCACCTAGTGCAG” the figure was 8070 fluorescence intensity (a.u.); with “ACATATATAGTACGTTAATTTAATCATGTTATTACAAGCTCGGAGTCACCTAGTGCAG”, 8510 fluorescence intensity (a.u.); with “CCCCATCAACCGCCGCTGACGCCCCTGCCTCTGAGTCCACCGGAGTCACCTAGTGCAG”, 9800 fluorescence intensity (a.u.). With “AAACAATACTACCTACAATTTTATTTACATTACGTTTGGTCGGAGTCACCTAGTGCAG” the figure was 8420 fluorescence intensity (a.u.). Turning to “CCGATCCAGAGCTCTCCGTCCGCTTCCCGCGCTCGTGTCGCGGAGTCACCTAGTGCAG”, the binding signal was 8900 fluorescence intensity (a.u.). Under “ATTTTTTTTTGGCATAGTTTGTGTTCACTGCAAAAATCACCGGAGTCACCTAGTGCAG” stands 9080 fluorescence intensity (a.u.); under “CATCTGCTTGGACGATTTTCTTGGGTGCTATCCTGTTCTTCGGAGTCACCTAGTGCAG”, 11000 fluorescence intensity (a.u.).

“AGAATCATCTCCTGCATACATACGTCAACCGTCTCCATCCCGGAGTCACCTAGTGCAG”: the binding signal was 10900 fluorescence intensity (a.u.). “TTTATCATCTGCATATATTTGAGTGCCTTTGCAGAATTTCCGGAGTCACCTAGTGCAG”: the binding signal is 8310 fluorescence intensity (a.u.). Under “GCCTCTCTACACGATCTGCGAGTGTTACCTTGTGTTCTTACGGAGTCACCTAGTGCAG” stands 8280 fluorescence intensity (a.u.); under “ATGGACTTTTTTCTCAATATTCCTTGTTTTTATTTCTGAACGGAGTCACCTAGTGCAG”, 12000 fluorescence intensity (a.u.); under “TATTTGACCATTCATATGTAAGTACCATTTGTTTCGCTGTCGGAGTCACCTAGTGCAG”, 10300 fluorescence intensity (a.u.).

Turning to “CCAGGTCAGAAAGCTACAAACTACTCGGTCTTTTGGTCAACGGAGTCACCTAGTGCAG”, the binding signal is 9670 fluorescence intensity (a.u.). Turning to “TTTCTTTTACCGGTGTTTTTTCTACATCGAATTTTCTCTTCGGAGTCACCTAGTGCAG”, the binding signal is 9880 fluorescence intensity (a.u.). With “CTGTTTAGATGTAGTGACAATTCAATAGCCTATGCATCCACGGAGTCACCTAGTGCAG” the figure was 8720 fluorescence intensity (a.u.); with “CGCCAAGGGGACCAGACCACACCACTCCGGTCCGACTCCGCGGAGTCACCTAGTGCAG”, 8550 fluorescence intensity (a.u.).

For “AGGTGTATATTGGGCAGGTATTAGGTGCATAGTCAAAAGTCGGAGTCACCTAGTGCAG”, the binding signal is 11000 fluorescence intensity (a.u.).
